Laboratory results published in the supplement of paper PMC10849652.
This is one part of the list. Residues, ends and D or L forms follow the SMILES beside them. *: point of attachment. Cbz = O=C(OCc1ccccc1)*

Chains of the proteins cited; added tags and fusions are not shown. Lines headed by an entry give the natural chain unless they say otherwise; changes in a name come on top.
UniProt Q9UN37: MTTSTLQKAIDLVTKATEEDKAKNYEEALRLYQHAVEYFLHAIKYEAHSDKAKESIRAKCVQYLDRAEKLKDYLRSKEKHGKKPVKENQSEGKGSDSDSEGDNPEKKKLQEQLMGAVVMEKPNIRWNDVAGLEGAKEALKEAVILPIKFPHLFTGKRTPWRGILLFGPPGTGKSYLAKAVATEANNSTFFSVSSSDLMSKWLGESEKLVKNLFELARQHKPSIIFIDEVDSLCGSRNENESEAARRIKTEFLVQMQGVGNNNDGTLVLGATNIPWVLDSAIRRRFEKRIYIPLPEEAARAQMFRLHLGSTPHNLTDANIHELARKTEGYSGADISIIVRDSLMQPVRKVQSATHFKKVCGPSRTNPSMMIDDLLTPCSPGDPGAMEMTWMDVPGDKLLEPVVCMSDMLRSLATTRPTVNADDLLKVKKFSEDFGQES
UniProt Q9BZH6: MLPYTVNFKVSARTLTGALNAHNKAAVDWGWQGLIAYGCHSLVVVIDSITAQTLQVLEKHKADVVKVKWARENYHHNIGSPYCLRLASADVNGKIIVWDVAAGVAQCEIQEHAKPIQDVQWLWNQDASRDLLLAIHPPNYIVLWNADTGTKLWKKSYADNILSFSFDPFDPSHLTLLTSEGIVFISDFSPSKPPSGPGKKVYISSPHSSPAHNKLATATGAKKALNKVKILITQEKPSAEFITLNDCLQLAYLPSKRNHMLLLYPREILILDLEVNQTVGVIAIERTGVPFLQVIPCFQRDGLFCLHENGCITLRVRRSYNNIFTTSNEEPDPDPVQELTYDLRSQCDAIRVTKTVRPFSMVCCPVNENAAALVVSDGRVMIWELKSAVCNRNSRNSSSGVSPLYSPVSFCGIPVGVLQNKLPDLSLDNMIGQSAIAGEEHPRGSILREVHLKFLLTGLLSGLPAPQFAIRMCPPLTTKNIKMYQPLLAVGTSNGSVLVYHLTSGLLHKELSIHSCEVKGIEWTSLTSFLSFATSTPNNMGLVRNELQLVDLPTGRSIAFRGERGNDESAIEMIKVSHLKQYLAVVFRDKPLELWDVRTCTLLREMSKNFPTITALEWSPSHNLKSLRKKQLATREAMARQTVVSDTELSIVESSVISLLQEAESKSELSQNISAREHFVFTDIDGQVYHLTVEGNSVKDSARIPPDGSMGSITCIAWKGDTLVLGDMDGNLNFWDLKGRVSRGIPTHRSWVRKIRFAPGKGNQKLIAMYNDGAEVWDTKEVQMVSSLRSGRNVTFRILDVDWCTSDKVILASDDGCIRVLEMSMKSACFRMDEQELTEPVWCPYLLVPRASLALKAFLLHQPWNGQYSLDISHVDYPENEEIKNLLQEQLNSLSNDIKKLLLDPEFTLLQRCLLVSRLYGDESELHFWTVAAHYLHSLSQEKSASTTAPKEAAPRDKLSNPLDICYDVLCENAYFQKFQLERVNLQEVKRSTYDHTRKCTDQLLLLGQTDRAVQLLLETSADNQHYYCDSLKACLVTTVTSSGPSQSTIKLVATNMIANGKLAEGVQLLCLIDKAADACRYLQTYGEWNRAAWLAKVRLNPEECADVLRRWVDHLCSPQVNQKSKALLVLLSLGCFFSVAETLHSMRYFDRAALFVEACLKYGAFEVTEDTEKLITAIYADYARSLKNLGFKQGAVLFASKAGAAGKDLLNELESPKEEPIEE
UniProt Q9Y2W2: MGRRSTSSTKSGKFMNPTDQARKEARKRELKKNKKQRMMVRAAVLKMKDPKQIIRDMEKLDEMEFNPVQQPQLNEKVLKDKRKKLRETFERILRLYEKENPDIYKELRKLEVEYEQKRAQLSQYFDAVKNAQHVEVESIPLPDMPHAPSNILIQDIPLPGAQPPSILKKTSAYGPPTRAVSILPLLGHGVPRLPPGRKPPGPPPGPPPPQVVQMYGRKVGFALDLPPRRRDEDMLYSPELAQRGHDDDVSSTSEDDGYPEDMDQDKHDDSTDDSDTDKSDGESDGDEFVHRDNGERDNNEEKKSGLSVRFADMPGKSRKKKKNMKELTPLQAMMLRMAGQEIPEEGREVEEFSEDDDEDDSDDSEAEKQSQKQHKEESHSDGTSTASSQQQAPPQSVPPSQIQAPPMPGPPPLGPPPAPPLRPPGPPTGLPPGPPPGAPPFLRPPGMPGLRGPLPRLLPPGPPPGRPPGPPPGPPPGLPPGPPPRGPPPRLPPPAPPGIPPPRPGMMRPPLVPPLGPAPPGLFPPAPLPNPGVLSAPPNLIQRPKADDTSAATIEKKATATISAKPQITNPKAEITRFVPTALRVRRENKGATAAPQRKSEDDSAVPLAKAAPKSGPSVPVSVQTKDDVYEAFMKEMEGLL
UniProt Q9BQA1, whole entry, looked up: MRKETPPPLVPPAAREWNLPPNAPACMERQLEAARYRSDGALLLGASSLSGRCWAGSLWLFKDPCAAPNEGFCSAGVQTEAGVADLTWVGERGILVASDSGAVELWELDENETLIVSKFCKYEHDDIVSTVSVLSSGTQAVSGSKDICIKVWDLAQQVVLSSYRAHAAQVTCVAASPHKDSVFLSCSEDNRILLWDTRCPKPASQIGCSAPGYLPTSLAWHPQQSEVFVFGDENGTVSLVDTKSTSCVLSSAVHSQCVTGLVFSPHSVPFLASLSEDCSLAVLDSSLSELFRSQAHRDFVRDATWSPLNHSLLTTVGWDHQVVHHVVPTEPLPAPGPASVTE
UniProt Q8N9V3: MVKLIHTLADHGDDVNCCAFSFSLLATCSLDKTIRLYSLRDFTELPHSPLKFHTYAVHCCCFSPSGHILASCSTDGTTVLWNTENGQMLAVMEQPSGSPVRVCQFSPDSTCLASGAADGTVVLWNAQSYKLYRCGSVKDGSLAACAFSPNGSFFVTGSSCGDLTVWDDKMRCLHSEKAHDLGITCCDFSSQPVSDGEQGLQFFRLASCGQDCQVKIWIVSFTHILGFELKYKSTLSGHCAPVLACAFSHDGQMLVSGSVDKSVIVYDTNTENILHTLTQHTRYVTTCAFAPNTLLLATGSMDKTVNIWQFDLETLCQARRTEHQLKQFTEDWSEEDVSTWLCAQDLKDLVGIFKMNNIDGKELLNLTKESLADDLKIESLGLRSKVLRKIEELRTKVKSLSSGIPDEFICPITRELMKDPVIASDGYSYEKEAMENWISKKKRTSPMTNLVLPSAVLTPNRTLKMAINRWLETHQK
UniProt Q96GC9: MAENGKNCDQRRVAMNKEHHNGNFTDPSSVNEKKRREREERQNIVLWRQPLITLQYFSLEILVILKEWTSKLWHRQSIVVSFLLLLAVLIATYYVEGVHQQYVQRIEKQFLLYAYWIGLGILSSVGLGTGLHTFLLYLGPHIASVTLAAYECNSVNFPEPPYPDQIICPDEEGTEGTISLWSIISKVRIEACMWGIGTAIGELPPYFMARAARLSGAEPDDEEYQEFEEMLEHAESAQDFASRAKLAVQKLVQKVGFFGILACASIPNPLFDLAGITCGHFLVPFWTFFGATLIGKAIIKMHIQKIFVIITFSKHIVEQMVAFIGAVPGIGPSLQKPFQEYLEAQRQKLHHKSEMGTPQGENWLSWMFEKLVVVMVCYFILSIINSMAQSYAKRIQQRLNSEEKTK

Legend:
Assay in all cases: log2 fold change, soluble protein after heating vs DMSO (PISA); higher = thermal stabilisation; K562 cells, 10 uM, 30 min; active = over 0.2 and 3.5 SD of the protein, either way, in both replicates (recomputed)
[1] = compound: C#Cc1cccc(Nc2ncnc3cc(OCCOC)c(OCCOC)cc23)c1 [erlotinib]
Summary of the method: (§1)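 K562 cells at 2×10^6 cells/mL were treated for 30 min with 10 μM compound, and aliquots were heated for 3 min over 48°C-58°C before pooling. Extraction used PBS with 0.5% NP-40 at 4°C, and soluble protein was the supernatant after 21,000xg for 90 min, measured by TMTpro 16plex LC-MS/MS with channel sums equalised. Thermal stability values, relative to control samples and from duplicates, are log2 fold changes.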

[2] = compound: C/C(=N\NC(=O)C1=CC(=CC=C1)S(=O)(=O)N2CCOCC2)/C3=C(C=CC(=C3)Cl)O
Summary of the method: as §1

[3] = compound: C1=CC(=C(C=C1Cl)C2=NC3=NC=CN=C3C(=N2)NC4=CC=NC=C4)F
Summary of the method: as §1

[4] = compound: C1=CC(=CC=C1C2=NC3=C(N2)C=C(C=C3)C(=O)N)OC4=CC=C(C=C4)Cl
Summary of the method: as §1

[5] = compound: C1=CC2=C(C=CC(=C2)/C=C\3/C(=O)NC(=NCC4=CC=CS4)S3)N=C1
Summary of the method: as §1

[6] = compound: C1=CC2=NC=CN=C2C=C1/C=C/3\C(=O)NC(=O)S3
Summary of the method: as §1

[7] = compound: C1=CC=C(C=C1)C2=NC(=C(N2)C3=CC=NC=C3)C4=CC(=C(C=C4)Cl)O
Summary of the method: as §1

[8] = compound: C1=CC=C2C(=C1)C3=NNC4=CC=CC(=C43)C2=O
Summary of the method: as §1

[9] = compound: C1CCN(C1)C(=O)NC2=CC=CC(=C2)NC3=NC=C(C(=N3)NCCC4=CN=CN4)Br
Summary of the method: as §1

[10] = compound: C1CN(CCC1(CC2=CC=C(C=C2)Cl)N)C3=NC=NC4=C3C=CN4
Summary of the method: as §1

[11] = compound: C1COCCN1CCN2C3=CC=CC=C3N=C2NC(=O)C4=CC(=CC=C4)[N+](=O)[O-] [IRAK-1-4 Inhibitor I]
Summary of the method: as §1

[12] = compound: C=CC(=O)N1CCC[C@@H](n2nc(-c3ccc(Oc4ccccc4)cc3)c3c(N)ncnc32)C1 [ibrutinib]
Summary of the method: as §1

[13] = compound: CC(=O)c1cnc2ccc(-c3cc(Cl)c(O)c(Cl)c3)nc2c1N[C@H]1CC[C@H](CN(C)C)CC1
Summary of the method: as §1

[14] = compound: CC(C)(C)Cn1c(N)nc2ccc(-c3[nH]c(C(C)(C)C)nc3-c3ccc(F)cc3)nc21 [ralimetinib]
Summary of the method: as §1

[15] = compound: CC(C)(O)CC(=O)NCCn1ccc2ncnc(Nc3ccc(Oc4cccc(C(F)(F)F)c4)c(Cl)c3)c21
Summary of the method: as §1

[16] = compound: CC(C)C1=C2N=C(C=C(N2N=C1)NCC3=CC=CC=C3)NCCCCCCN
Summary of the method: as §1

[17] = compound: CC(C)C[C@@H](C=O)NC(=O)[C@H](CC(C)C)NC(=O)[C@H](CC(C)C)NC(=O)OCc1ccccc1
Summary of the method: as §1

[18] = compound: CC(C)N(C[C@H]1O[C@@H](n2cnc3c(N)ncnc32)[C@H](O)[C@@H]1O)[C@H]1C[C@@H](CCc2nc3cc(C(C)(C)C)ccc3[nH]2)C1 [pinometostat]
Summary of the method: as §1

[19] = compound: CC1=C(C2=C(C=C1)C(=O)C3=CC=CC=C3N2CCCN)C
Summary of the method: as §1

[20] = compound: CC1=C(C(CC(=O)N1)C2=CC=C(C=C2)C(F)(F)F)C(=O)NC3=C(C=C4C(=C3)C=NN4)F
Summary of the method: as §1

Measured: log2 fold change

VPS13B (UniProt Q7Z7G8)
active: [16] -0.241
inactive: [1] 0.032 | [2] 0.024 | [3] 0.028 | [4] 0.009 | [5] 0.048 | [6] -0.025 | [7] 0.032 | [8] -0.017 | [9] -0.052 | [10] 0.058 | [11] 0.05 | [12] -0.013 | [13] -0.016 | [14] -0.042 | [15] -0.06 | [17] 0.121 | [18] 0.007 | [19] 0.015

VPS4A (UniProt Q9UN37)
inactive: [1] 0.007 | [2] 0.042 | [3] 0.084 | [4] -0.074 | [5] -0.017 | [6] 0.02 | [7] 0.034 | [8] 0.029 | [9] 0.027 | [10] -0.028 | [11] -0.01 | [12] -0.017 | [13] -0.021 | [14] 0 | [15] -0.059 | [16] -0.146 | [17] 0.023 | [18] -0.018 | [20] 0.006 | [19] 0.027

WDR11 (UniProt Q9BZH6)
inactive: [1] 0.103 | [2] -0.081 | [3] 0.145 | [4] -0.004 | [5] 0.115 | [6] 0.067 | [7] -0.168 | [8] 0.005 | [9] 0.091 | [10] 0.023 | [11] 0.009 | [12] -0.112 | [13] -0.01 | [14] -0.068 | [15] -0.018 | [16] -0.056 | [17] -0.047 | [18] 0 | [19] 0.065

WBP11 (UniProt Q9Y2W2)
inactive: [1] -0.008 | [2] 0.021 | [3] -0.01 | [4] 0.009 | [5] -0.056 | [6] 0 | [7] -0.002 | [8] -0.017 | [9] 0.013 | [10] 0.027 | [11] -0.002 | [12] 0.036 | [13] -0.078 | [14] -0.027 | [15] 0.035 | [16] 0.09 | [17] 0.016 | [18] -0.029 | [20] 0.016 | [19] 0.003

WDR77 (UniProt Q9BQA1)
inactive: [1] 0.019 | [2] 0.025 | [3] 0.025 | [4] -0.035 | [5] 0.008 | [6] 0.011 | [7] 0.013 | [8] 0.01 | [9] -0.03 | [10] 0.011 | [11] -0.011 | [12] 0.037 | [13] -0.002 | [14] 0.013 | [15] -0.053 | [16] -0.025 | [17] -0.127 | [18] 0.003 | [20] -0.008 | [19] 0.091

WDSUB1 (UniProt Q8N9V3)
inactive: [1] 0.035 | [2] -0.009 | [3] 0.021 | [4] 0.028 | [5] 0.035 | [6] 0.017 | [7] -0.031 | [8] -0.003 | [9] -0.029 | [10] -0.02 | [11] -0.013 | [12] 0.027 | [13] 0.003 | [14] -0.028 | [15] -0.066 | [16] 0.053 | [17] -0.011 | [18] -0.025 | [20] 0.017 | [19] 0.022

WDR12 (UniProt Q9GZL7)
inactive: [1] -0.004 | [2] 0.015 | [3] 0.031 | [4] -0.02 | [5] 0.018 | [6] 0.015 | [7] -0.018 | [8] -0.032 | [9] 0.023 | [10] 0.015 | [11] 0.03 | [12] -0.011 | [13] -0.044 | [14] -0.059 | [15] 0.004 | [16] 0.004 | [17] -0.026 | [18] -0.026 | [20] 0.064 | [19] -0.064

VMP1 (UniProt Q96GC9)
inactive: [1] 0.004 | [2] 0.006 | [3] 0.093 | [4] -0.026 | [5] 0.019 | [6] 0.06 | [7] -0.015 | [8] -0.019 | [9] -0.012 | [10] 0.018 | [11] -0.009 | [12] -0.014 | [13] -0.024 | [14] -0.033 | [15] -0.089 | [16] 0.027 | [17] -0.034 | [18] 0.001 | [20] 0.004 | [19] -0.015
